This is an account of results in publication PMC8184850, “Cryo-EM structure of TFIIH/Rad4–Rad23–Rad33 in damaged DNA opening in nucleotide excision repair” (Nature Communications, 2021).

The exact form of at least one protein or probe is not confirmed. At least one verdict rests on a figure or table, not on a statement of the authors.

The subject of one data set is coreTFIIH (7 subunits). The data set is described as follows: EMSA. To be noted: AMP-PNP, 2 mM Mg2+, EMSA: 20 mM HEPES, 100 mM K-acetate, 2 mM Mg-acetate, 5 mM DTT, room temperature 20 min, 250 nM each component, 0.2x TBE agarose gel at 4 C (pH not stated in this buffer), native protein, protein details: TAP tags on Tfb4 and Ssl2, TEV-treated, label: 32P 5' end (T4 PNK) in EMSA.

In a further data set the test system is Rad4-Rad23. Briefly: EMSA. The note with it: AMP-PNP, 2 mM Mg2+, EMSA: 20 mM HEPES, 100 mM K-acetate, 2 mM Mg-acetate, 5 mM DTT, room temperature 20 min, 250 nM each component, 0.2x TBE agarose gel at 4 C (pH not stated in this buffer), recombinant protein, protein details: His-purified, thrombin-digested, label: 32P 5' end (T4 PNK) in EMSA. For orientation: Mobility shift assays separate free from complexed probe on a gel.

[1] abbreviates: N-2-acetylaminofluorene adduct on the single G of strand 1 (nt 14), printed strand spans -13 to +24.
The mark [2] stands for this setting: N-2-acetylaminofluorene adduct on the single G of strand 1 (nt 15, position 0).

Take “CATCCCACTACCTGTCCATCTTCACTCAACTATCACCC (double strand) [-15/+24 AAF]”: the binding result in the data set with coreTFIIH (7 subunits) (setting [1]) and with Rad4-Rad23 (setting [1]) was “binds” each time.

Turning to “CCATCCCACTACCTGTCCATCTTCACTCA (double strand) [-14/+14 AAF]”, the binding result in the data set on coreTFIIH (7 subunits) (setting [2]) and in the data set with Rad4-Rad23 (setting [2]) was “binds” throughout.
